Measurements from article doi:10.1101/699132 (bioRxiv, 2020).
Where two headings read alike, the source gives them in different places. Results are given in words; binding and its absence hold for the method and conditions named. Binding seen in cells or lysates may run through a third protein. Binding can be weak; no strength is given. For some of these results: Tags and fused reporters may be left off the sequences shown.

Assays:
Test in all cases: co-IP
[1] = biological target: T1, Flag-tagged human PRDX4 (human) (UniProt Q13162)
T1 sequence: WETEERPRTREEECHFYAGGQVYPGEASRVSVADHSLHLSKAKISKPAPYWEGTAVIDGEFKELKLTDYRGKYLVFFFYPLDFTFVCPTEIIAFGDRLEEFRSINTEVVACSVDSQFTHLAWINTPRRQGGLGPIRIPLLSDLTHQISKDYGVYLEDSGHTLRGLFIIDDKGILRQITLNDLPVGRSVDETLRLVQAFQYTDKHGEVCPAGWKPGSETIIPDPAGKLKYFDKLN

[2] = biological target: T1, Flag-tagged human PRDX4 (human); remark: listed apart in the source
[3] = biological target: human proinsulin (human (endogenous in human islets))
[4] = biological target: MYC-tagged wild-type human proinsulin (human)

“MYC-tagged Akita mutant human proinsulin” was tested. Which binding [1] did it give?
Its binding is “binds”.

What does the source list for MYC-tagged wild-type human proinsulin?
binding [1]: binds; binding [2]: binds

B1: ERDJ5 (protein, UniProt Q8IXB1 33-793)
chain: DQDFYSLLGVSKTASSREIRQAFKKLALKLHPDKNPNNPNAHGDFLKINRAYEVLKDEDLRKKYDKYGEKGLEDNQGGQYESWNYYRYDFGIYDDDPEIITLERREFDAAVNSGELWFVNFYSPGCSHCHDLAPTWRDFAKEVDGLLRIGAVNCGDDRMLCRMKGVNSYPSLFIFRSGMAPVKYHGDRSKESLVSFAMQHVRSTVTELWTGNFVNSIQTAFAAGIGWLITFCSKGGDCLTSQTRLRLSGMLDGLVNVGWMDCATQDNLCKSLDITTSTTAYFPPGATLNNKEKNSILFLNSLDAKEIYLEVIHNLPDFELLSANTLEDRLAHHRWLLFFHFGKNENSNDPELKKLKTLLKNDHIQVGRFDCSSAPDICSNLYVFQPSLAVFKGQGTKEYEIHHGKKILYDILAFAKESVNSHVTTLGPQNFPANDKEPWLVDFFAPWCPPCRALLPELRRASNLLYGQLKFGTLDCTVHEGLCNMYNIQAYPTTVVFNQSNIHEYEGHHSAEQILEFIEDLMNPSVVSLTPTTFNELVTQRKHNEVWMVDFYSPWCHPCQVLMPEWKRMARTLTGLINVGSIDCQQYHSFCAQENVQRYPEIRFFPPKSNKAYHYHSYNGWNRDAYSLRIWGLGFLPQVSTDLTPQTFSEKVLQGKNHWVIDFYAPWCGPCQNFAPEFELLARMIKGKVKAGKVDCQAYAQTCQKAGIRAYPTVKFYFYERAKRNFQEEQINTRDAKAIAALISEKLETLRNQGKRNKDEL
With B1 as the molecule, how does the binding [3] read?
Its binding is “binds”.

B2: ERGIC1 (protein, UniProt Q969X5 1-290)
chain: MPFDFRRFDIYRKVPKDLTQPTYTGAIISICCCLFILFLFLSELTGFITTEVVNELYVDDPDKDSGGKIDVSLNISLPNLHCELVGLDIQDEMGRHEVGHIDNSMKIPLNNGAGCRFEGQFSINKVPGNFHVSTHSATAQPQNPDMTHVIHKLSFGDTLQVQNIHGAFNALGGADRLTSNPLASHDYILKIVPTVYEDKSGKQRYSYQYTVANKEYVAYSHTGRIIPAIWFRYDLSPITVKYTERRQPLYRFITTICAIIGGTFTVAGILDSCIFTASEAWKKIQLGKMH
B2 was tested. Which binding [3] did it give?
The binding was “binds”.

B3: Flag-tagged human PRDX4 (enzyme, UniProt Q13162 38-271)
chain: T1 sequence
How did the binding [4] turn out when B3 was run?
Its binding is “binds”.

B4: Human QSOX1-HA (enzyme, UniProt O00391 30-747)
chain: APRSALYSPSDPLTLLQADTVRGAVLGSRSAWAVEFFASWCGHCIAFAPTWKALAEDVKAWRPALYLAALDCAEETNSAVCRDFNIPGFPTVRFFKAFTKNGSGAVFPVAGADVQTLRERLIDALESHHDTWPPACPPLEPAKLEEIDGFFARNNEEYLALIFEKGGSYLGREVALDLSQHKGVAVRRVLNTEANVVRKFGVTDFPSCYLLFRNGSVSRVPVLMESRSFYTAYLQRLSGLTREAAQTTVAPTTANKIAPTVWKLADRSKIYMADLESALHYILRIEVGRFPVLEGQRLVALKKFVAVLAKYFPGRPLVQNFLHSVNEWLKRQKRNKIPYSFFKTALDDRKEGAVLAKKVNWIGCQGSEPHFRGFPCSLWVLFHFLTVQAARQNVDHSQEAAKAKEVLPAIRGYVHYFFGCRDCASHFEQMAAASMHRVGSPNAAVLWLWSSHNRVNARLAGAPSEDPQFPKVQWPPRELCSACHNERLDVPVWDVEATLNFLKAHFSPSNIILDFPAAGSAARRDVQNVAAAPELAMGALELESRNSTLDPGKPEMMKSPTNTTPHVPAEGPEASRPPKLHPGLRAAPGQEPPEHMAELQRNEQEQPLGQWHLSKRDTGAALLAESRAEKNRLWGPLEVRRVGRSSKQLVDIPEGQLEARAGRGRGQWLQVLGGGFSYLDISLCVGLYSLSFMGLLAMYTYFQAKIRALKGHAGHPAA
How did the binding [4] turn out when B4 was run?
The binding was “binds”.
